# Test: GWP of mixed refrigerants evaluated from IPCC fourth report values
# Details: GWP of HFO-1132(E) set to 1; for GWP(AR4): IPCC fourth report
SMILES,GWP (R32 and R152a per IPCC fourth report),GWP(AR4)
"CC(F)F [2-5, 1,1-difluoroethane]",124,
C=C(F)C(F)(F)F [3-1],,4
FCC(F)(F)F [compound 1],,1430

# — patent US20240287368A1, “COMPOSITION CONTAINING REFRIGERANT, USE OF SAME, REFRIGERATOR HAVING SAME, AND METHOD FOR OPERATING SAID REFRIGERATOR” (DAIKIN INDUSTRIES, LTD., priority 2021, published 2024)
